The values below come from publication PMC4585983.

Sequences of proteins named here, by UniProt entry; tags and fusion partners are left off.
UniProt Q04207: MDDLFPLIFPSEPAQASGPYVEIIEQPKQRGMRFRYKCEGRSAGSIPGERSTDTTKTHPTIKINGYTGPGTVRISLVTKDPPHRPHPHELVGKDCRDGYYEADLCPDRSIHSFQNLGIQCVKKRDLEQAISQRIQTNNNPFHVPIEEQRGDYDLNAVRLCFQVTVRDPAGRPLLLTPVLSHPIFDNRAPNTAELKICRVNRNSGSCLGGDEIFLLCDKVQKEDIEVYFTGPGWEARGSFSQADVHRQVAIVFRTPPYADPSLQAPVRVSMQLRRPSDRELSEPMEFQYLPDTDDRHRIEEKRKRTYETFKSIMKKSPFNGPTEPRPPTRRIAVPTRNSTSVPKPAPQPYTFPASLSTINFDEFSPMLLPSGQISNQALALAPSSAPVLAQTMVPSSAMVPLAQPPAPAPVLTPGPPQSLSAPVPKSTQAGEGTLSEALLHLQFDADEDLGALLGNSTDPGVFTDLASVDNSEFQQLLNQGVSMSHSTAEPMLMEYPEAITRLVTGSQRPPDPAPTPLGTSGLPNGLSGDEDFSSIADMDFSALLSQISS

These are yes or no findings as the source states them, for the method shown. In cells and extracts the contact can be indirect. Some results given as binding are weak or reduced against the parent protein; the word gives no strength.

The target of test [1] is T1, Activating transcription factor 3 (mouse (endogenous in RAW 264.7)) (UniProt Q60765).
T1 sequence: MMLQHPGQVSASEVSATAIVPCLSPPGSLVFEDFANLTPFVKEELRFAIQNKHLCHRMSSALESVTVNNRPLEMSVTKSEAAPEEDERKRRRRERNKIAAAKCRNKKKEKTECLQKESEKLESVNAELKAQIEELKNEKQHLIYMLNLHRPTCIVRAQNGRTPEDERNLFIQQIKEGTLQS
The test can be described thus: co-IP; anti-ATF3 antibody on agarose beads; RAW 264.7 cells treated with 1 μg/mL LPS for the indicated times; whole-cell lysates; Western blot. On the technique in general: In western blotting, separated proteins are transferred to a membrane and probed.

Test [2] deals with p65 subunit of nuclear factor κB (NF-κB) (mouse (endogenous in RAW 264.7)) (UniProt Q04207). The test can be described thus: co-IP; anti-p65 antibody on agarose beads; RAW 264.7 cells treated with 1 μg/mL LPS for the indicated times (also cells with scrambled siRNA); whole-cell lysates; Western blot.

Turning to “p65 subunit of nuclear factor κB (NF-κB) (from UniProt Q04207 1-549)”, the binding result in test [1] is “binds”.

B1: Activating transcription factor 3 (protein, UniProt Q60765 1-181)
chain: MMLQHPGQVSASEVSATAIVPCLSPPGSLVFEDFANLTPFVKEELRFAIQNKHLCHRMSSALESVTVNNRPLEMSVTKSEAAPEEDERKRRRRERNKIAAAKCRNKKKEKTECLQKESEKLESVNAELKAQIEELKNEKQHLIYMLNLHRPTCIVRAQNGRTPEDERNLFIQQIKEGTLQS
As to B1, in test [2], the binding entry was “binds”.
